According to publication doi:10.1101/2023.06.25.546467:
Numbering of substitutions follows the chain as printed. Names and notes keep the numbering of the source. These are yes or no findings as the source states them, for the method shown. Some binding calls cover weakened binding; strength is not graded here.

B1: Rad5 (protein, UniProt P32849 1-1169)
chain: MSHIEQEERKRFFNDDLDTSETSLNFKSENKESFLFANSHNDDDDDVVVSVSDTTEGEGDRSIVPVRREIEEEGQNQFITELLRIIPEMPKDLVMELNEKFGSQEEGLSLALSHYFDHNSGTSISKIPSSPNQLNTLSDTSNSTLSPSSFHPKRRRIYGFRNQTRLEDKVTWKRFIGALQVTGMATRPTVRPLKYGSQMKLKRSSEEISATKVYDSRGRKKASMASLVRIFDIQYDREIGRVSEDIAQILYPLLSSHEISFEVTLIFCDNKRLSIGDSFILQLDCFLTSLIFEERNDGESLMKRRRTEGGNKREKDNGNFGRTLTETDEELESRSKRLALLKLFDKLRLKPILDEQKALEKHKIELNSDPEIIDLDNDEICSNQVTEVHNNLRDTQHEEETMNLNQLKTFYKAAQSSESLKSLPETEPSRDVFKLELRNYQKQGLTWMLRREQEFAKAASDGEASETGANMINPLWKQFKWPNDMSWAAQNLQQDHVNVEDGIFFYANLHSGEFSLAKPILKTMIKGGILSDEMGLGKTVAAYSLVLSCPHDSDVVDKKLFDIENTAVSDNLPSTWQDNKKPYASKTTLIVVPMSLLTQWSNEFTKANNSPDMYHEVYYGGNVSSLKTLLTKTKTPPTVVLTTYGIVQNEWTKHSKGRMTDEDVNISSGLFSVNFYRIIIDEGHNIRNRTTVTSKAVMALQGKCKWVLTGTPIINRLDDLYSLVKFLELDPWRQINYWKTFVSTPFESKNYKQAFDVVNAILEPVLLRRTKQMKDKDGKPLVELPPKEVVIKRLPFSKSQDLLYKFLLDKAEVSVKSGIARGDLLKKYSTILVHILRLRQVCCHPGLIGSQDENDEDLSKNNKLVTEQTVELDSLMRVVSERFDNSFSKEELDAMIQRLKVKYPDNKSFQSLECSICTTEPMDLDKALFTECGHSFCEKCLFEYIEFQNSKNLGLKCPNCRNQIDACRLLALVQTNSNSKNLEFKPYSPASKSSKITALLKELQLLQDSSAGEQVVIFSQFSTYLDILEKELTHTFSKDVAKIYKFDGRLSLKERTSVLADFAVKDYSRQKILLLSLKAGGVGLNLTCASHAYMMDPWWSPSMEDQAIDRLHRIGQTNSVKVMRFIIQDSIEEKMLRIQEKKRTIGEAMDTDEDERRKRRIEEIQMLFE
B2: Rad5 E783D (protein, UniProt P32849 1-1169)
chain: B1 chain with E783D

Biological target: T1, Ubc13 (S. cerevisiae) (UniProt P52490)
T1 sequence: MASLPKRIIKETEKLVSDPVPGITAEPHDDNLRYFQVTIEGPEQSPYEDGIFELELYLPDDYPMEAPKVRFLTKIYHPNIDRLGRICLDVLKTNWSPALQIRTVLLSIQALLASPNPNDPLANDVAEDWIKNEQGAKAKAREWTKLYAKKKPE
Experiment: two-hybrid

| Binder | binding |
| --- | --- |
| B1 | binds |
| B2 | binds |
